PubChem BioAssay AID1259290, Sanger Institute | 2017
Assay: 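Kinases whose loss kills colorectal cancer cells alone or alongside targeted drugs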 (primary screen). Cell system: human SNUC1 colorectal cancer cells. Reagents: siRNA pool against human genes. Treatment: anchor drugs BYL719 1 µM, cetuximab 5 µg/ml or trametinib 10 nM, or DMSO vehicle alone. Detection: 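Cell viability relative to a non-targeting siRNA control, replicate-averaged, as robust z-score for knock-down alone, plus a synergy score for each anchor drug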. Scale: viability z-score, siRNA alone: higher = more viable cells; low values mean essential gene; viability vs control, siRNA alone: higher = more viable cells; synergy score with BYL719 and synergy score with Cetuximab: higher = stronger synthetic lethal effect with drug. Call rule: 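a knock-down without drug scoring a robust z under -3 counts as essential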. Calls: active = essential: knock-down alone cut viability (z below -3); inactive = no clear viability loss with knock-down alone.
Here is an unselected part of 794 reagents tested. Of all reagents, 9 (1.1%) were called active. 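Calls rest on knock-down alone, not drug synergy; synergy above 0.15 was grouped apart and does not affect calls.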 Entries without a mark were called inactive. No viability above 1 is reported: the scale is capped. Further read-outs or replicates are left out here. No sequences are given here. The record does not give: the amount of reagent, the time to read-out.

| Target gene | PubChem SID | viability z-score, siRNA alone | viability vs control, siRNA alone | synergy score with BYL719 | synergy score with Cetuximab |
| --- | --- | --- | --- | --- | --- |
| TEK (TEK receptor tyrosine kinase) | SID152152932 | 0.0378 | 0.919 | -0.173 | -0.0347 |
| DDR1 (discoidin domain receptor tyrosine kinase 1) | SID152155868 | 0.936 | 1 | -0.198 | -0.0447 |
| PRPS2 (phosphoribosyl pyrophosphate synthetase 2) | SID152153546 | -0.885 | 0.836 | -0.249 | 0.0784 |
| ATR (ATR checkpoint kinase) | SID135620635 | 0.827 | 0.99 | 0.0257 | 0.0522 |
| SRPK2 (SRSF protein kinase 2) | SID56478890 | 0.936 | 1 | -0.189 | -0.0447 |
| DDR2 (discoidin domain receptor tyrosine kinase 2) | SID135620612 | 0.936 | 1 | -0.142 | -0.0447 |
| EFNA3 (ephrin A3) | SID135623696 | 0.936 | 1 | -0.0205 | 0.0056 |
| COASY (Coenzyme A synthase) | SID56479117 | -0.974 | 0.828 | 0.0481 | 0.119 |
| CAMK1D (calcium/calmodulin dependent protein kinase ID) | SID152153083 | 0.936 | 1 | -0.0412 | 0.0788 |
| NME6 (NME/NM23 nucleoside diphosphate kinase 6) | SID56479120 | 0.936 | 1 | -0.0251 | 0.0845 |
| MAK (male germ cell associated kinase) | SID56478884 | -2.34 | 0.705 | -0.256 | -0.299 |
| SMAD2 (SMAD family member 2) | SID152156776 | -2.22 | 0.716 | -0.306 | -0.00545 |
| PKN1 (protein kinase N1) | SID56478783 | 0.936 | 1 | -0.198 | -0.0447 |
| STK31 (serine/threonine kinase 31) | SID135620977 | 0.131 | 0.927 | -0.117 | -0.0438 |
| STK32B (serine/threonine kinase 32B) | SID56478812 | 0.886 | 0.995 | -0.00991 | 0.133 |
| CHKB (choline kinase beta) | SID56479083 | -0.417 | 0.878 | -0.0549 | 0.0421 |
| CSNK2A2 (casein kinase 2 alpha 2) | SID56478861 | -2.23 | 0.714 | -0.0465 | -0.138 |
| TESK2 (testis associated actin remodelling kinase 2) | SID135620925 | -1.02 | 0.824 | -0.0374 | 0.104 |
| LMTK2 (lemur tail kinase 2) | SID152147902 | 0.936 | 1 | -0.187 | -0.0447 |
| ULK4 (unc-51 like kinase 4) | SID152148607 | -1.6 | 0.772 | -0.205 | -0.0436 |
| EPHA7 (EPH receptor A7) | SID152149990 | -0.646 | 0.858 | -0.143 | 0.00924 |
| SMC1A (structural maintenance of chromosomes 1A) | SID134311995 | -0.697 | 0.853 | 0.142 | -0.0116 |
| POMK (protein O-mannose kinase) | SID56479008 | -0.281 | 0.89 | -0.2 | 0.0503 |
| SF3B1 (splicing factor 3b subunit 1) | SID152151347 | -3.32 (active) | 0.617 | -0.181 | -0.0881 |
| PPP2R1A (protein phosphatase 2 scaffold subunit Aalpha) | SID135621908 | -0.226 | 0.895 | -0.201 | 0.0883 |
| PRP4K (pre-mRNA processing factor kinase PRP4K) | SID152152780 | -1.19 | 0.808 | -0.0835 | -0.0113 |
| TNK2 (tyrosine kinase non receptor 2) | SID56478482 | 0.936 | 1 | -0.198 | -0.0447 |
| SRMS | SID56479047 | 0.936 | 1 | -0.198 | -0.0447 |
| GRK5 (G protein-coupled receptor kinase 5) | SID152146923 | 0.936 | 1 | 0.0324 | -0.0447 |
| CDK10 (cyclin dependent kinase 10) | SID152152801 | -0.7 | 0.853 | -0.0611 | -0.0206 |
| VRK3 (VRK serine/threonine kinase 3) | SID135620981 | -0.238 | 0.894 | -0.282 | -0.077 |
| EGFR (epidermal growth factor receptor) | SID135620613 | 0.213 | 0.935 | -0.156 | 0.118 |
| TNIK (TRAF2 and NCK interacting kinase) | SID152153870 | 0.936 | 1 | -0.0803 | -0.00036 |
| FASTK (Fas activated serine/threonine kinase) | SID56479004 | 0.547 | 0.965 | 0.0235 | 0.119 |

Part of the list above, reformatted.
{"Target gene":"NME6 (NME/NM23 nucleoside diphosphate kinase 6)","PubChem SID":"SID56479120","viability z-score, siRNA alone":0.936,"viability vs control, siRNA alone":1,"synergy score with BYL719":-0.0251,"synergy score with Cetuximab":0.0845}
{"Target gene":"MAK (male germ cell associated kinase)","PubChem SID":"SID56478884","viability z-score, siRNA alone":-2.34,"viability vs control, siRNA alone":0.705,"synergy score with BYL719":-0.256,"synergy score with Cetuximab":-0.299}
{"Target gene":"SMAD2 (SMAD family member 2)","PubChem SID":"SID152156776","viability z-score, siRNA alone":-2.22,"viability vs control, siRNA alone":0.716,"synergy score with BYL719":-0.306,"synergy score with Cetuximab":-0.00545}
